Reference: US20260055186A1
These are yes or no findings as the source states them, for the method shown. Some binding calls cover weakened binding; strength is not graded here.

Amino acid sequences for entries named in this document (tags omitted). A change or cut given only in a name is not applied to a line headed by its entry. Residues count along the entry.
UniProt P01732, residues 22-235: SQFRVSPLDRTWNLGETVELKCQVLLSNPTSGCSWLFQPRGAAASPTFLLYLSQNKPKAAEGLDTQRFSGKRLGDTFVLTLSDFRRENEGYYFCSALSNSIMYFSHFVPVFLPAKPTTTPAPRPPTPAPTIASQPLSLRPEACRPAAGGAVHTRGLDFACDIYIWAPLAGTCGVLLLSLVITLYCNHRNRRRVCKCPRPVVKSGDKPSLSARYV
UniProt P01660: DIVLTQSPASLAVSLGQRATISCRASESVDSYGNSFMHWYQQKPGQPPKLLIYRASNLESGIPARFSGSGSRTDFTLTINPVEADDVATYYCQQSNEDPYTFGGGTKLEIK

Legend:
[1] = molecular target: human CD8 on human T cells (human) (UniProt P01732); experiment: flow cytometry on human PBMCs, anti-IL12 detection (FIG. 12)
[2] = molecular target: human CD8 on human T cells (human) (UniProt P01732); experiment: flow cytometry, CD8+ T cells in human PBMCs, 1 h, PE anti-IL12

With “02A01-IgG-IL12 (LC) (from UniProt P01660 1-111)” the binding [1] was “binds” and the binding [2] was “binds”.
